Measurements as given in PubChem BioAssay AID540256 (National Center for Advancing Translational Sciences (NCATS), 2011).
“And” between values parts separate entries of the source, which are not always exact repeats. Equal values may be shown once. Hit rate of the full screen: of about 300,000 compounds, about 3,700 (1.2%) were called active. This list was built around the results that the source calls inconclusive (neither active nor inactive); the mix of calls is not that of the screen. The call rests on the fitted dose curve; tested in HEK293 cells. Potencies beside an inconclusive call are fits to weak or partial responses and may not hold up.

Assay: qHTS for Inhibitors of binding or entry into cells for Lassa Virus; further: nearly all actives have a fitted effect of over 50% in size
Settings: Lassa virus pseudotype entry inhibition, cell reporter; activity change, negative = inhibition: at 37.9 µM (top of the series) unless noted
On the % scale 0 is the no-effect control and ±100 the full control effect; potency means the concentration at half of the fitted maximal effect.

| Compound | Potency | activity change, negative = inhibition |
| --- | --- | --- |
| C/C(N)=C(/C#N)C(=O)CSc1nnc(SCc2ccc(Cl)cc2)s1 | inconclusive: 12.6 µM [inhibitor, partial curve] and inconclusive: 12.6 µM [inhibitor, single point] |  |
| CCCCn1c(=O)[nH]c(=O)c2c1nc(-c1cc3c(cc1Br)OCO3)n2C | inconclusive: 8.91 µM [inhibitor, partial curve, poor fit] |  |
| COc1c(C)cc(C(=O)C2CCCN(Cc3c(C)n(C)n(-c4ccccc4)c3=O)C2)cc1C (configuration not stated) |  | inactive: -5.82% |
| CC1=CC(C)=Nc2ccc(C)cc2N1 | inconclusive: 35.5 µM [activator, single point] |  |
| Clc1cccc(-c2nnc(-c3ccccc3)o2)c1 | inconclusive: 22.4 µM [inhibitor, single point] |  |
| CN1C(=O)Cc2cc(S(=O)(=O)Nc3ccc(Cl)cc3)ccc21 | inconclusive: 10 µM [inhibitor, partial curve, poor fit] |  |
| CC1CCCCN1C(=O)CSc1nnc(-c2ccccc2F)o1 (configuration not stated) | inconclusive: 6.31 µM [inhibitor, full curve, poor fit] |  |
| Cc1nn(CCCC(=O)Nc2cc(Oc3ccccc3)cc([N+](=O)[O-])c2)c(C)c1[N+](=O)[O-] |  | inactive: 4.09% |
| COc1ccc(-c2ccc3nnc(SCC(=O)N4CCCC4)n3n2)cc1 | inconclusive: 35.5 µM [inhibitor, single point] |  |
| COc1cc(/C=C/C(=O)OC(C)C(=O)Nc2c(C)n(C)n(-c3ccccc3)c2=O)ccc1OCC#N (configuration not stated) | inconclusive: 15.8 µM [inhibitor, single point] |  |
| CC1CCCCC1NC(=O)/C(C#N)=C/c1ccccc1F (configuration not stated) | inconclusive: 35.5 µM [inhibitor, single point] |  |
| CSc1nc2n(n1)C(c1ccccn1)C1=C(CC(C)(C)CC1=O)N2 (configuration not stated) | inconclusive: 29.1 µM [activator, single point] |  |
| CCCc1nnc(NC(=O)C2CC(=O)N(CCc3ccc(F)cc3)C2)s1 (configuration not stated) |  | inactive: 7.31% [at 46.1 µM] |
| CCCCn1c(O)c(C(C)=NC(C)c2ccccc2)c(=O)[nH]c1=O (configuration not stated) | inconclusive: 14.1 µM [inhibitor, partial curve, poor fit] |  |
| CCNC(=S)N/N=C/c1cc(C)n(-c2ccc(Cl)cc2)c1C | inconclusive: 35.5 µM [inhibitor, single point] |  |
| Cc1cc(N/C=C\c2nnnn2-c2ccccc2)no1 |  | inactive: 6.76% |
| CCOC(=O)Cc1nnc(NC(=O)C23CC4CC(CC(C4)C2)C3)s1 |  | inactive: -6.71% [at 46.1 µM] |
| CCOC(=O)CNC(=O)CSc1nnc(-c2ccccc2)n1Cc1ccco1 |  | inactive: 4.22% |
| CC(=O)C(=Nc1ccccc1Cl)NNc1ccc(Cl)cc1 | inconclusive: 11.2 µM [inhibitor, single point] |  |
| Cc1ccc(C)c(-n2nnnc2Sc2nnnn2-c2ccccc2)c1 | inconclusive: 32.6 µM [inhibitor, partial curve, poor fit] |  |
| Cc1ccccc1NC(=O)CC1SCCNC1=O (configuration not stated) |  | inactive: -18.6% |
| Cc1cc(C)n2nc(SC(C)C(=O)Nc3ccccc3F)nc2n1 (configuration not stated) | inconclusive: 3.55 µM [activator, single point] |  |
| COC(=O)[C@@H](NC(=O)c1ccccc1OC1CCN(S(C)(=O)=O)CC1)C(C)C | inconclusive: 6.31 µM [inhibitor, single point] |  |

| Compound | Potency | activity change, negative = inhibition |
| --- | --- | --- |
| O=C(Nc1ccc(F)cc1)NC1CCCCCCC1 |  | inactive: -11.8% [at 46.1 µM] |
| CC(C)OC(=O)c1cccc(-c2ccc(C=O)o2)c1 | inconclusive: 35.5 µM [activator, single point] |  |
| CN(C)c1ccc(/C=N\NC(=S)SCN2C(=O)C3CCC(C)(C2=O)C3(C)C)cc1 (configuration not stated) | inconclusive: 25.9 µM [inhibitor, single point] |  |
| O=C(COc1ccc(Cl)cc1)OCc1cc(=O)n2nc(-c3cccs3)sc2n1 | inconclusive: 5.62 µM [inhibitor, single point] |  |
| CCNC(=O)CN(CCc1ccccc1)S(=O)(=O)c1ccc(OC)cc1 | inconclusive: 1.46 µM [inhibitor, partial curve, poor fit] |  |
| COc1ccc(C2NC(=O)C(C)S2)cc1 (configuration not stated) | inconclusive: 23.1 µM [activator, single point] |  |
| CC(C)c1ccc(NC(=O)c2snc3ccc(Cl)cc23)cc1 | inconclusive: 29.1 µM [inhibitor, single point] |  |
| COC(=O)CC1C(=O)NCCN1C(=S)NC(=O)C(c1ccccc1)c1ccccc1 (configuration not stated) | inconclusive: 1.26 µM [activator, single point] |  |
| O=C(O)c1ccc(N2Cc3ccccc3C2)cc1O |  | inactive: 11.3% |
| CC(C)NC(=O)NC(=O)COC(=O)Cc1c(F)cccc1Cl | inconclusive: 17.8 µM [inhibitor, partial curve, poor fit] |  |
| CN(Cc1ccccc1)S(=O)(=O)c1ccc(NC(=S)NC(=O)C2CCCC2)cc1 | inconclusive: 1.16 µM [inhibitor, full curve, poor fit] |  |
| O=C(/C=C/c1ccc2c(c1)OCO2)Nc1c(C(=O)O)[nH]c2ccccc12 |  | inactive: -27.8% |
| CCc1cc2c(N3CCN(c4ccccc4)CC3)ncnc2s1 | inconclusive: 35.5 µM [inhibitor, single point] |  |
| Nc1cc(=O)[nH]c(SCC(=O)N2CCN(S(=O)(=O)c3ccc4ccccc4c3)CC2)n1 |  | inactive: 1.74% |
| CC(c1ccccc1)n1c(-c2cccs2)nc2c(c(=O)c3ccccc3n2C)c1=O (configuration not stated) |  | inactive: 5.21% |
| Cc1ccc(C)c(S(=O)(=O)N2CCN(C(=O)[C@@H]3CCCN3C(=O)c3cccs3)CC2)c1 |  | inactive: -0.193% |
| Fc1ccc(Nc2nc(N3CCOCC3)c3ccccc3n2)cc1 | inconclusive: 3.55 µM [activator, single point] |  |
| Cc1cc(C(=O)COC(=O)c2ccc(O)cc2)c(C)n1-c1ccccc1F | inconclusive: 10 µM [inhibitor, partial curve, poor fit] |  |
| CCOC(=O)c1sc2nc(CC(=O)OC)nc(N(C)CCc3ccccn3)c2c1C | inconclusive: 35.5 µM [inhibitor, single point] |  |
| Cc1ccc(N(CCCCN2C(=O)c3ccccc3C2=O)C(=O)c2ccc(Cl)s2)cc1 | inconclusive: 0.112 µM [inhibitor, full curve, poor fit] |  |
| Cc1ccc(Cn2nnnc2CN2CCC(n3nnc4cc(C(F)(F)F)ccc43)CC2)cc1 | inconclusive: 32.6 µM [inhibitor, single point] |  |
| Cn1c(=O)c2c(-c3ccccc3)n3c4ccccc4nc(-c4ccccc4)c3c2n(C)c1=O | inconclusive: 1.12 µM [inhibitor, full curve, poor fit] |  |
| BrC(/C=N/N1CCN(Cc2ccccc2)CC1)=C/c1ccccc1 | inconclusive: 2.51 µM [inhibitor, partial curve] |  |

13 of the compounds above, as tab-separated lines.
Compound	Potency	activity change, negative = inhibition
O=C(O)c1ccc(N2Cc3ccccc3C2)cc1O		inactive: 11.3%
CC(C)NC(=O)NC(=O)COC(=O)Cc1c(F)cccc1Cl	inconclusive: 17.8 µM [inhibitor, partial curve, poor fit]	
CN(Cc1ccccc1)S(=O)(=O)c1ccc(NC(=S)NC(=O)C2CCCC2)cc1	inconclusive: 1.16 µM [inhibitor, full curve, poor fit]	
O=C(/C=C/c1ccc2c(c1)OCO2)Nc1c(C(=O)O)[nH]c2ccccc12		inactive: -27.8%
CCc1cc2c(N3CCN(c4ccccc4)CC3)ncnc2s1	inconclusive: 35.5 µM [inhibitor, single point]	
Nc1cc(=O)[nH]c(SCC(=O)N2CCN(S(=O)(=O)c3ccc4ccccc4c3)CC2)n1		inactive: 1.74%
CC(c1ccccc1)n1c(-c2cccs2)nc2c(c(=O)c3ccccc3n2C)c1=O (configuration not stated)		inactive: 5.21%
Cc1ccc(C)c(S(=O)(=O)N2CCN(C(=O)[C@@H]3CCCN3C(=O)c3cccs3)CC2)c1		inactive: -0.193%
Fc1ccc(Nc2nc(N3CCOCC3)c3ccccc3n2)cc1	inconclusive: 3.55 µM [activator, single point]	
Cc1cc(C(=O)COC(=O)c2ccc(O)cc2)c(C)n1-c1ccccc1F	inconclusive: 10 µM [inhibitor, partial curve, poor fit]	
CCOC(=O)c1sc2nc(CC(=O)OC)nc(N(C)CCc3ccccn3)c2c1C	inconclusive: 35.5 µM [inhibitor, single point]	
Cc1ccc(N(CCCCN2C(=O)c3ccccc3C2=O)C(=O)c2ccc(Cl)s2)cc1	inconclusive: 0.112 µM [inhibitor, full curve, poor fit]	
Cc1ccc(Cn2nnnc2CN2CCC(n3nnc4cc(C(F)(F)F)ccc43)CC2)cc1	inconclusive: 32.6 µM [inhibitor, single point]	

Next records.

| Compound | Potency | activity change, negative = inhibition |
| --- | --- | --- |
| COc1cc(C(=O)NCCC(=O)NC2CCCc3ccccc32)cc(OC)c1OC (configuration not stated) |  | inactive: 0.83% [at 46.1 µM] |
| Cc1ccc(-n2cc[nH]c2=S)cc1C | inconclusive: 17.8 µM [activator, single point] |  |
| CCC(Sc1nc(-c2ccccc2)c(C#N)c(=O)[nH]1)C(=O)Nc1nnc(C)s1 (configuration not stated) | inconclusive: 29.1 µM [activator, single point] |  |
| COc1ccc(S(=O)(=O)c2nnn(-c3cc(Cl)c(OC)cc3OC)c2C)cc1 | inconclusive: 11.2 µM [inhibitor, partial curve, poor fit] |  |
| O=C1C=CC(=O)N1CCCCCCN1C(=O)C=CC1=O | inconclusive: 15.8 µM [inhibitor, single point] |  |
| Nc1c(Cl)ncnc1N1CCN(c2ncnc(Cl)c2N)CC1 | inconclusive: 4.61 µM [inhibitor, partial curve, poor fit] |  |
| Cc1onc(-c2ccccc2)c1C(=O)OCc1nnc(-c2ccccc2)o1 |  | inactive: -9.63% |
| Cc1ccc(Cc2nc3ccccc3nc2SCC(=O)NCCC(C)C)cc1 |  | inactive: -13.1% [at 46.1 µM] |
| c1ccc(-c2nc(-c3cccc4ccccc34)c(Nc3ccc4ccccc4c3)o2)cc1 | inconclusive: 0.211 µM [inhibitor, full curve, poor fit] |  |
| Clc1ccc(-c2nnc(-c3ccccc3)o2)c(Cl)c1 | inconclusive: 14.6 µM [inhibitor, partial curve, poor fit] |  |
| O=C(Nc1ccc(NC(=O)c2ccco2)c(Cl)c1)c1ccc2c(c1)OCCO2 | inconclusive: 12.6 µM [inhibitor, partial curve, poor fit] |  |
| COc1ccc(CCNS(=O)(=O)c2ccc(N3CCCC3=O)cc2)cc1 | inconclusive: 28.2 µM [inhibitor, single point] |  |
| CC(=O)c1c(C)[nH]c(C(=O)OCC(=O)Nc2cc(S(=O)(=O)N3CCCC3)ccc2Cl)c1C | inconclusive: 15.8 µM [inhibitor, single point] |  |
| COc1ccccc1/C=C/C=C(\C#N)C(=O)NC(C)c1ccccc1 (configuration not stated) |  | inactive: -28.9% |
| COc1ccc(OCCN2CCN(S(=O)(=O)c3ccccc3C(F)(F)F)CC2)cc1 | inconclusive: 10 µM [inhibitor, partial curve, poor fit] |  |
| CSc1ccc(CNCCCN(C)C)cc1 | inconclusive: 35.5 µM [inhibitor, single point] |  |
| CCc1cccc2c(C(=O)COC(=O)c3cnc(C)cn3)c[nH]c12 |  | inactive: 20.5% |
| Cc1ccc(C(C)(C)C)cc1S(=O)(=O)N1CCC(C(=O)N2CCN(c3ccc(O)cc3)CC2)CC1 | active: 2.82 µM |  |
| COc1cc(CNCCc2c[nH]c3ccccc23)ccc1OCc1ccc(F)cc1 |  | inactive: -21.2% |
| CC(C)OC(=O)c1c(N)sc2c1CCCC2 |  | inactive: -24% |
| O=C(c1cc2ccccc2o1)N1CCN(S(=O)(=O)c2cccs2)CC1 | inconclusive: 35.5 µM [inhibitor, single point] |  |

Retrieved by structure from above (2):

| Compound | Potency | activity change, negative = inhibition |
| --- | --- | --- |
| Cc1ccc(C(C)(C)C)cc1S(=O)(=O)N1CCC(C(=O)N2CCN(c3ccc(O)cc3)CC2)CC1 | active: 2.82 µM |  |
| CCCc1nnc(NC(=O)C2CC(=O)N(CCc3ccc(F)cc3)C2)s1 (configuration not stated) |  | inactive: 7.31% [at 46.1 µM] |
